The list shows a part of the results. Shown are side measurements of this screen, not its main read-out; they come without a call. The list favours compounds with an active or inconclusive main result. Words in brackets tell the shape of the fitted curve; partial curves, single points and poor fits give uncertain potencies.

A short description of the assay: qHTS Assay to Find Inhibitors of Chronic Active B-Cell Receptor Signaling. The conditions noted are these: ABC-DLBCL IkBa-CBG/CBR reporter, luminescence ratio (green luciferase fused to IkBa over red control in TMD8 lymphoma cells), 4 h; measured here: CBR red luminescence, cell number. In short, it runs like this: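 Compounds up to 46 uM were incubated four hours with TMD8 cells whose green CBG68 luciferase is fused to IkappaBalpha; red CBR luminescence normalised the signal, and concentration-effect curves were fitted to fusion, red and ratio data.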
A general note: qHTS replaces the single test concentration by a dilution series.
What is called AC50 is the midpoint of the concentration-response curve, whichever way the signal moves. With `CCOC(=O)c1sc(NNC(=O)c2ccc(C)cc2)nc1C`, the AC50 was 5.62 µM [rising, single point].

For the compound `CCc1ccccc1OCC(=O)Nc1cccc(S(=O)(=O)NCc2ccco2)c1`, the AC50 was 5.8 µM [falling, partial curve].

As for `COc1ccc(S(=O)(=O)N2CCOC2CNC(=O)C(=O)NCCCN2CCOCC2)cc1` (stereo not drawn), the AC50 was 12.6 µM [rising, partial curve, poor fit].

In the case of `COc1ccc(C(=O)N/N=C(\C)CC(=O)Nc2ccc(Cl)cn2)cc1`, the AC50 was 7.08 µM [falling, partial curve, poor fit].

Consider `C/C(=N\NC(=O)c1cccs1)c1ccc(C(=O)O)s1`, for which the AC50 is 10 µM [falling, partial curve, poor fit].

Regarding `COCCOC(=O)C1=C(C)N=C2SCCC(=O)N2C1/C=C/c1ccccc1` (stereo not drawn), the AC50 is 3.55 µM [rising, single point].

As to `CC1(C)CC2CC(C)(CN2C(=O)COC(=O)c2cccc([N+](=O)[O-])c2)C1` (stereo not drawn), the AC50 is 6.51 µM [rising, single point].

Regarding `c1ccc(CNc2ccc(N3CCOCC3)cc2)cc1`, the AC50 is 0.58 µM [rising, full curve, poor fit].

As for `CC(C)CCNC(=O)CCS(=O)(=O)c1cccc2nonc12`, the AC50 is 6.51 µM [falling, single point].

Regarding `COc1ccccc1OCC(=O)Nc1ccc(S(=O)(=O)Nc2cc(C)nc(C)n2)cc1`, the AC50 is 0.92 µM [rising, full curve, poor fit].

As to `O=C(NCCSCc1ccc(Cl)cc1Cl)c1ccc(CN2CCOCC2)cc1`, the AC50 is 6.31 µM [rising, single point].

For `O=C(NC(=S)NC1CCCc2ccccc21)c1ccco1` (stereo not drawn), the AC50 is 17.8 µM [rising, single point].

With `O=C(Nc1ccc(NC(=O)C2CCCCC2)nc1)c1cccc(F)c1`, the AC50 was 6.31 µM [rising, single point].

With `COc1ccc(/C=C/C(=O)Oc2cccc(/C=N/NC(=O)Cc3ccc(Br)cc3)c2)cc1`, the AC50 is 22.4 µM [rising, single point].

In the case of `CCSc1nnc(NC(=O)CSc2nnc(Cc3cccn3C)n2-c2ccc(C)cc2)s1`, the AC50 is 18.4 µM [falling, single point].

Turning to `COc1ccc2c(CC(=O)OCC(=O)Nc3ccc4c(c3)OCO4)coc2c1`, the AC50 was 29.1 µM [rising, single point].

Turning to `Cc1csc(NC(=O)CCc2c(C)nc3cc(-c4ccc(Cl)cc4)nn3c2C)n1`, the AC50 was 0.184 µM [falling, partial curve].

In the case of `CCC(CC)C(=O)c1c[nH]c(C(=O)NCCOC)c1`, the AC50 is 20 µM [rising, single point].

For the origin of these results see PubChem BioAssay AID493014 (National Center for Advancing Translational Sciences (NCATS), 2011).
